Source: publication PMC4200421, “A distinct tethering step is vital for vacuole membrane fusion” (eLife, 2014)
These are yes or no findings as the source states them, for the method shown. Some binding calls cover weakened binding; strength is not graded here. Sequences can lack the tags named with a protein.

Biological target: T1, Vam3p (vacuolar Qa-SNARE), on 3Q-SNARE proteoliposomes (S. cerevisiae) (UniProt Q12241)
T1 sequence: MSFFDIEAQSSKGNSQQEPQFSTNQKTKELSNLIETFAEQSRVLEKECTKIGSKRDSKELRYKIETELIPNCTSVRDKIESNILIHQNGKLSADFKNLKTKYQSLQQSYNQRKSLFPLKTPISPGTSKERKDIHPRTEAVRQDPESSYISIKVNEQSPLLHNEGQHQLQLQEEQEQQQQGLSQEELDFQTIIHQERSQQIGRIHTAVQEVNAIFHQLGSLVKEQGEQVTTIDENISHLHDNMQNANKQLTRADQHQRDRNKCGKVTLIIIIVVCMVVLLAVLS
Experiment: co-IP; association of Nyv1p with 3Q-SNAREs after detergent solubilisation (RIPA buffer); co-IP with anti-Vam3p carried out with increasing concentrations of GST-Nyv1p; immunoblot with anti-Nyv1p; both purified

B1: GST-His6-3Csite-Nyv1p (protein, UniProt Q12255 1-253)
chain: MKRFNVSYVEVIKNGETISSCFQPFQKNENYGTITSANEQITPVIFHNLIMDMVLPKVVPIKGNKVTKMSMNLIDGFDCFYSTDDHDPKTVYVCFTLVDMPKILPIRILSGLQEYESNATNELLSSHVGQILDSFHEELVEYRNQTLNSSGNGQSSNGNGQNTISDIGDATEDQIKDVIQIMNDNIDKFLERQERVSLLVDKTSQLNSSSNKFRRKAVNIKEIMWWQKVKNITLLTFTIILFVSAAFMFFYLW
B1 was tested, and the binding was “binds”.
